Results as given in article PMC7819943, “Rice protein-binding microarrays: a tool to detect cis-acting elements near promoter regions in rice”.
Some of the results follow.

These sequences were tested against T1, OsSMF1 (Oryza sativa, UniProt Q6ZLB0 1-436) (assay: protein-binding microarray (RPBM); PBS, 2% BSA, 51.3 ng/ul salmon testes DNA, 50 uM zinc acetate, 200 nM TF, 25 C, 1 h; high values mean tight binding). Conditions: protein: recombinant; tags: N-terminal polyhistidine and DsRed monomer fusion (pET32a); chain copies: 2; label: CyDye5-dUTP incorporated in the synthesized complementary strand; 3' TTTTT single-stranded linker to array surface; dsDNA, one strand shown.
T1 sequence: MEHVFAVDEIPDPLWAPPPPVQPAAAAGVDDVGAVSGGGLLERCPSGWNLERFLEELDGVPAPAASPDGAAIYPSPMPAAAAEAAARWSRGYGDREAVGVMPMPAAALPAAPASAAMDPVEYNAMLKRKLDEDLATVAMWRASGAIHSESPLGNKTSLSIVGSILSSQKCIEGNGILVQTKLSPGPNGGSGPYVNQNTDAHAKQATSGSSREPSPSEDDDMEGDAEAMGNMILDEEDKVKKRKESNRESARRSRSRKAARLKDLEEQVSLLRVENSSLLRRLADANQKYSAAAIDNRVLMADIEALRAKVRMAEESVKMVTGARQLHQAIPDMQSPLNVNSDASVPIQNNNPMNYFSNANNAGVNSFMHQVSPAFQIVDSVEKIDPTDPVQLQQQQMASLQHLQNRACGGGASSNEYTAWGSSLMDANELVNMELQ
In short: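 Per-feature fluorescence intensity (arbitrary units), read on an Axon 4000B scanner, is the binding signal. Transcription factors carrying an N-terminal polyhistidine tag and DsRed fusion were expressed in E. coli BL21-CodonPlus and purified on Ni–NTA. A custom Agilent array, made double-stranded by primer extension with Cy5-dUTP and blocked with 2% BSA, was incubated with 200 nM protein in PBS, 2% BSA, salmon testes DNA and 50 µM zinc acetate at 25 °C for 1 h and then washed.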

Row | Sequence | binding signal
1 | ACGGCGTCCGCGTGGCCGACAAGATCCTGCGGCTTGTCCCCGGAGTCACCTAGTGCAG | 3960 fluorescence intensity (a.u.)
2 | ACCCTAACGCTTGAAGTCATGCACCATCTAATATGATATCCGGAGTCACCTAGTGCAG | 3970 fluorescence intensity (a.u.)
3 | TTCCATTGCTACTTTTCCACGTGCAGTTGCCAGGTTGTGACGGAGTCACCTAGTGCAG | 5140 fluorescence intensity (a.u.)
4 | CATGTGTCTAATGTCTTTCTTCTATCTTACGACGTGGGGCCGGAGTCACCTAGTGCAG | 3170 fluorescence intensity (a.u.)
5 | TGTGAGATCGGGATCTGTCCGCAGCCCAACATGACTGTACCGGAGTCACCTAGTGCAG | 5090 fluorescence intensity (a.u.)
6 | CAAGTTTTCTTCAATAGGCAATGTGGTCACGTGAATTCTCCGGAGTCACCTAGTGCAG | 3710 fluorescence intensity (a.u.)
7 | GATAGCGGTTTTGGCTGACGTGGCGCCTACATGGCTATTTCGGAGTCACCTAGTGCAG | 16800 fluorescence intensity (a.u.)
8 | TGCCTGTCGGGATGGGATGCATATGGATGGAGTATGAACACGGAGTCACCTAGTGCAG | 3170 fluorescence intensity (a.u.)
9 | CGAATTTAAAATTGAAAATACAAAATTTGACTCATAAGCTCGGAGTCACCTAGTGCAG | 3780 fluorescence intensity (a.u.)
10 | AGGAAGAAGCAGCCTCGGTCTCTCCGATCTGCGTGGACGCCGGAGTCACCTAGTGCAG | 3720 fluorescence intensity (a.u.)
11 | GCTACATATGAGCACCATGACATGTCCTTAGAGGTGGAGACGGAGTCACCTAGTGCAG | 3140 fluorescence intensity (a.u.)
12 | GTGGCACCGTGGCATGGGTCACTGCCCGAGTCATTCCTCACGGAGTCACCTAGTGCAG | 3870 fluorescence intensity (a.u.)
13 | CCCTCCCCTCTTCTCCGCGCGCGACAATACCACGCCTACGCGGAGTCACCTAGTGCAG | 3560 fluorescence intensity (a.u.)
14 | TAAGTGGCGGTCGGTCACGCTTAGCGGCGGCCGGTCCGGTCGGAGTCACCTAGTGCAG | 4300 fluorescence intensity (a.u.)
15 | GGCGGCTCTGGTTCGGCGACACGTGGCGCCGGGCTGCGGCCGGAGTCACCTAGTGCAG | 7500 fluorescence intensity (a.u.)
16 | TCCATATAGTTCTAGATAATCCGTGGCAATAGGCCGGAGTCGGAGTCACCTAGTGCAG | 3330 fluorescence intensity (a.u.)
17 | CATTTCTTCTCTAGCGTTACGCTGTCCCTTCTCTCGGTGACGGAGTCACCTAGTGCAG | 35400 fluorescence intensity (a.u.)
18 | CGGGAGCTCTCCCGGCGGTACGGCCCCGTCATGCTCCTCCCGGAGTCACCTAGTGCAG | 4810 fluorescence intensity (a.u.)
19 | GCCGTAGAGGCGATGTGTCCGGCCTGTACTTTGATCGTCTCGGAGTCACCTAGTGCAG | 3650 fluorescence intensity (a.u.)
20 | CGCCGGGCCGGGGCAATGCTGAACTAACGCGCTTCTCATTCGGAGTCACCTAGTGCAG | 3470 fluorescence intensity (a.u.)
21 | TATATGGTCTTCTCAATTAAACTCCACTAAACCTCCCTATCGGAGTCACCTAGTGCAG | 3680 fluorescence intensity (a.u.)

Row | Sequence | binding signal
22 | TTGGCATTATTAACTAGCTGCAGCGTCACATATTTCACTACGGAGTCACCTAGTGCAG | 5610 fluorescence intensity (a.u.)
23 | GAACCATCCAACGGTGCAGCACCAGTGGGCCCCACACACCCGGAGTCACCTAGTGCAG | 18700 fluorescence intensity (a.u.)
24 | ACCTGGCAATGTCTTTACTGTCTCTAATGCCATGTCAGAGCGGAGTCACCTAGTGCAG | 7000 fluorescence intensity (a.u.)
25 | ATGGTAGGGATGACTCTGACGATTCTCCTGGCCTCCCGCCCGGAGTCACCTAGTGCAG | 4110 fluorescence intensity (a.u.)
26 | TTCTGTCAATTCCTTTCACCATTTTCAGGCTGAATTTTGTCGGAGTCACCTAGTGCAG | 3410 fluorescence intensity (a.u.)
27 | CGCAACCACTCCACGCACTAGCCAAATCAATCGATTCATCCGGAGTCACCTAGTGCAG | 3250 fluorescence intensity (a.u.)
28 | TTACCAGTGGTGATTAATGATTTGTCACTAGGCCTACATGCGGAGTCACCTAGTGCAG | 4070 fluorescence intensity (a.u.)
29 | CACACCCATCATAGTTTACGATGCCGGAGTACGCGGAGCCCGGAGTCACCTAGTGCAG | 3590 fluorescence intensity (a.u.)
30 | TTTGCCTACTGCTCTCTGTGTCAGATATCCACACGTGCCCCGGAGTCACCTAGTGCAG | 4580 fluorescence intensity (a.u.)
31 | GCGGGTTGAGGGCGCGCGGGAGGAGCGACGTCAGGGTGCTCGGAGTCACCTAGTGCAG | 3990 fluorescence intensity (a.u.)
32 | CCCCTCGTCTACCCACCCACTGCCACGTGGGACCAGCCACCGGAGTCACCTAGTGCAG | 18400 fluorescence intensity (a.u.)
33 | GTCTCCCTTGATCCAGTAAACAGACGACACGCGGACGATCCGGAGTCACCTAGTGCAG | 3260 fluorescence intensity (a.u.)
34 | AGGGGTGCGTAGAGAACACGCGTCCGTACGTGGTGGCGTACGGAGTCACCTAGTGCAG | 4270 fluorescence intensity (a.u.)
35 | AAGATAAGTTCGCCGCCGCCTCGTCGGCACGCAACAAGACCGGAGTCACCTAGTGCAG | 3390 fluorescence intensity (a.u.)
36 | TGTTTATAGCGGGCTTATAGTCTCTCATTGTACTTGCTCTCGGAGTCACCTAGTGCAG | 3300 fluorescence intensity (a.u.)
37 | GGGTTCGATTCCCCGCACCTCCAATATAAAACGTTTTCTTCGGAGTCACCTAGTGCAG | 3420 fluorescence intensity (a.u.)
38 | CATTAGCACGCTTTTCAAAGTACAAAATGACGTGTTTTGTCGGAGTCACCTAGTGCAG | 9620 fluorescence intensity (a.u.)
39 | CAGCGCTATCTCCCTCCTGCTGCATTAACTCTTCAGTAATCGGAGTCACCTAGTGCAG | 3340 fluorescence intensity (a.u.)
40 | GATTGTTGGCGGTTCTTGATTGTCATCATCATGTTGTCAGCGGAGTCACCTAGTGCAG | 5680 fluorescence intensity (a.u.)
41 | AGTTTTGCAGAGTAGCAGCGTGATGCAGAGGTTTCTACCACGGAGTCACCTAGTGCAG | 3310 fluorescence intensity (a.u.)
42 | TCCGCTCCTCCGCTGCTTGGTCACCGACCCCTCGGAACGCCGGAGTCACCTAGTGCAG | 5280 fluorescence intensity (a.u.)

Quoted at random: two entries already listed, in no set order.
Row | Sequence | binding signal
34 | AGGGGTGCGTAGAGAACACGCGTCCGTACGTGGTGGCGTACGGAGTCACCTAGTGCAG | 4270 fluorescence intensity (a.u.)
28 | TTACCAGTGGTGATTAATGATTTGTCACTAGGCCTACATGCGGAGTCACCTAGTGCAG | 4070 fluorescence intensity (a.u.)
